{"source": "PubChem BioAssay AID504834", "about": "(National Center for Advancing Translational Sciences (NCATS), 2011)", "note": "Values joined by “and” are separate entries in the source; they are usually repeats but may differ in a detail not shown here. Equal values may be shown once. Screen size: about 320,000 compounds; about 22,000 (6.9%) were called active. Inconclusive results, whose numbers are uncertain, are shown with a selection of clear calls. The call rests on the fitted dose curve; in most records, active means well fitted inhibition curve with a large enough effect; inconclusive means small, poorly fitted or top-dose-only effect, or another doubt; inactive means no such curve, though single readings can be large or run the other way. A potency beside an inconclusive call is a rough fit, not a confirmed value. On the % scale 0 is the no-effect control and ±100 the full control effect; potency means the concentration at half of the fitted maximal effect.", "data": [{"experiment": "Primary qHTS for delayed death inhibitors of the malarial parasite plastid, 96 hour incubation", "conditions": "P. falciparum luciferase reporter growth; series mostly up to 28.7 µM; activity change, negative = inhibition: at the top concentration", "outline": "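96 h incubation, 37 C, 5% CO2, of luciferase-reporter P. falciparum-infected RBCs (2% hematocrit, 0.05% parasitemia final) with test compounds; endpoint luminescence.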", "values": [{"smiles": "C=CCN(c1ccccc1)S(=O)(=O)c1cccc(C(=O)NNC(=O)c2ccncc2)c1", "activity change, negative = inhibition": "inactive: 2.33%"}, {"smiles": "O=C1COc2ccc(C(=O)COC(=O)c3ccccc3[N+](=O)[O-])cc2N1", "activity change, negative = inhibition": "inactive: 25.4%"}, {"smiles": "O=C(Nc1ccccc1)c1ccc(NCC2CCCO2)c([N+](=O)[O-])c1", "note": "(stereo not drawn)", "Potency": "inconclusive: 18.5 µM [inhibitor, single point]"}, {"smiles": "COc1ccc(N2CCN(S(=O)(=O)c3c(C)[nH]c(C)c3C(=O)N3CCCC3)CC2)cc1", "Potency": "inconclusive: 18.5 µM [inhibitor, partial curve, poor fit]"}, {"smiles": "CCN(CC)C(=O)Cn1cc(C(=O)C(=O)N2CCN(Cc3ccccc3)CC2)c2ccccc21", "Potency": "inconclusive: 10.4 µM [inhibitor, single point]"}, {"smiles": "COc1cccc(NC(=O)C(=O)N/N=C/c2ccc3c(c2)OCO3)c1", "Potency": "active: 10.4 µM"}, {"smiles": "Cc1cccc(C(=O)Nc2cccnc2Cl)c1", "Potency": "inconclusive: 10.4 µM [inhibitor, single point]"}, {"smiles": "O=C(N/N=C/c1cccc2cccnc12)c1ccccc1O", "activity change, negative = inhibition": "inactive: -0.466%"}, {"smiles": "N#Cc1c(-c2ccccc2)nc(-c2ccccc2)[nH]c1=O", "Potency": "inconclusive: 2.33 µM [inhibitor, full curve, poor fit]"}, {"smiles": "Cc1ncc(CO)c2cc(C(N)=O)c(=Nc3ccccc3)oc12", "Potency": "inconclusive: 13.1 µM [inhibitor, single point]"}, {"smiles": "C#CCOCCOCCOCCNc1nc(N2CCN(C(=O)CCCCCCCCCCNC(=O)[C@H](CCCCN)n3cc(CCO)nn3)CC2)nc(N2CCN(C(=O)CCCCCCCCCCNC(=O)[C@H](CCCCN)n3cc(CCO)nn3)CC2)n1", "Potency": "active: 7.38 µM"}, {"smiles": "O=C(CNC(=O)c1ccccc1)Nc1ccc(Br)cc1C(=O)c1ccccc1", "activity change, negative = inhibition": "inactive: 16.1%"}, {"smiles": "CCCn1c(O)c(CN2CCCCC2)c(C)c(C#N)c1=O", "Potency": "inconclusive: 4.15 µM [inhibitor, single point]"}, {"smiles": "CCc1ccc(Nc2ccc(S(=O)(=O)N3CCOCC3)cc2[N+](=O)[O-])cc1", "Potency": "inconclusive: 13.1 µM [inhibitor, partial curve]"}, {"smiles": "O=C(NCCn1cccn1)c1ccc(OC2CCN(C(=O)C3CC3)CC2)cc1", "activity change, negative = inhibition": "inactive: 29.1%"}, {"smiles": "COc1ccc(OC)c(NC(=O)c2ccc(N3C(=O)C4CC=C(C)CC4C3=O)cc2)c1", "note": "(stereo not drawn)", "Potency": "inconclusive: 11.7 µM [inhibitor, single point]"}, {"smiles": "CCc1nnc2n1N=C(c1ccc(Br)cc1)CS2", "activity change, negative = inhibition": "inactive: 5.08%"}, {"smiles": "CC[C@@H]1CC=C[C@H]2[C@H]1C(=O)N(Cc1ccccc1)[C@H]2c1ccc2ccccc2c1", "Potency": "inconclusive: 13.1 µM [inhibitor, single point]"}, {"smiles": "Cc1cc(C)n(-c2ccc(C(=O)Nc3ccc(N4CCOCC4)cc3)cc2)n1", "activity change, negative = inhibition": "inactive: 0%"}, {"smiles": "NCCc1ccc(O)c(O)c1", "Potency": "inconclusive: 16.9 µM [inhibitor, single point] and inconclusive: 11.7 µM [inhibitor, single point]"}, {"smiles": "COc1ccc(CC2(C)OC(c3ccc(Cl)cc3)=NN2C(C)=O)cc1", "note": "(stereo not drawn)", "activity change, negative = inhibition": "inactive: -6.15%"}, {"smiles": "COc1cc(C(=O)N2CCN(C(=O)c3cc(-c4ccccc4)n[nH]3)CC2)cc(OC)c1OC", "Potency": "inconclusive: 18.5 µM [inhibitor, single point]"}, {"smiles": "O=C(NC1CCCCC1)C1CCN(S(=O)(=O)N2CCCCCC2)CC1", "Potency": "inconclusive: 0.0104 µM [inhibitor, full curve, poor fit]"}, {"smiles": "O=S1(=O)CCC(NC2CCCC2)C1", "note": "(stereo not drawn)", "activity change, negative = inhibition": "inactive: 32.7%"}, {"smiles": "Cc1ccc(NC(=O)COC(=O)C(NS(=O)(=O)c2ccc(Cl)cc2)C(C)O)c(Br)c1", "note": "(stereo not drawn)", "Potency": "inconclusive: 11.7 µM [inhibitor, single point]"}, {"smiles": "Cc1onc(-c2ccccc2)c1-c1nnc(-c2ccccc2C(F)(F)F)o1", "activity change, negative = inhibition": "inactive: 38.2%"}, {"smiles": "Cc1ccc(NS(=O)(=O)c2c(C)nc3sccn3c2=O)cc1C", "Potency": "inconclusive: 1.31 µM [inhibitor, single point]"}, {"smiles": "COc1ccc(-c2noc(CCC(=O)Nc3cccnc3)n2)cc1", "activity change, negative = inhibition": "inactive: -1.73%"}, {"smiles": "CC1CCc2nc3ccccc3c(C(=O)OCC(=O)NC3CCS(=O)(=O)C3)c2C1", "note": "(stereo not drawn)", "Potency": "inconclusive: 0.0415 µM [inhibitor, full curve, poor fit]"}, {"smiles": "CCN1C(=O)c2cccc3c(N)ccc1c23", "Potency": "inconclusive: 10.4 µM [inhibitor, single point]"}, {"smiles": "O=C(CSc1nc2ccccc2c(=O)n1-c1ccc(F)cc1)NC1CCS(=O)(=O)C1", "note": "(stereo not drawn)", "activity change, negative = inhibition": "inactive: 2.89%"}, {"smiles": "CC(=O)Nc1ccc(NC(=O)C2CC(=O)N(C(C)C)C2)cc1", "note": "(stereo not drawn)", "Potency": "inconclusive: 4.15 µM [inhibitor, full curve, poor fit]"}, {"smiles": "C/C(=N\\NC(=S)NCc1ccccc1)c1ccc(C)o1", "Potency": "inconclusive: 18.5 µM [inhibitor, single point]"}, {"smiles": "c1ccc2c(Nc3nc(-c4ccncc4)nc4ccccc34)cccc2c1", "Potency": "inconclusive: 1.04 µM [inhibitor, full curve, poor fit]"}, {"smiles": "O=C1CC(c2ccccc2)CC(O)=C1C=NCCN1CCNCC1", "note": "(stereo not drawn)", "Potency": "inconclusive: 2.62 µM [inhibitor, partial curve, poor fit]"}, {"smiles": "CC(=O)N1Cc2ccccc2C(C)CC12CCCCC2", "note": "(stereo not drawn)", "Potency": "inconclusive: 18.5 µM [inhibitor, single point]"}, {"smiles": "CC(=O)NCCn1c(SCC(=O)c2ccccc2)nc2ccccc2c1=O", "Potency": "inconclusive: 0.233 µM [inhibitor, full curve, poor fit]"}, {"smiles": "Cc1ccc(OCC(=O)NNC(=O)c2cc3ccccc3o2)cc1", "Potency": "inconclusive: 0.0033 µM [inhibitor, full curve, poor fit]"}, {"smiles": "O=C(c1cc([N+](=O)[O-])ccc1N1CCCC1)N1CCCCC1", "Potency": "inconclusive: 14.7 µM [inhibitor, partial curve, poor fit]"}, {"smiles": "COc1ccc(/C(C)=N/NC(=O)CNC(=O)c2ccncc2)cc1", "activity change, negative = inhibition": "inactive: -20.7%"}, {"smiles": "Cc1cc2c(cc1S(=O)(=O)Nc1cccc(F)c1)n(C)c(=O)c(=O)n2C", "Potency": "inconclusive: 0.294 µM [inhibitor, full curve]"}, {"smiles": "Nc1c(C(=O)CSc2nnc(-c3ccccc3F)o2)c(=O)[nH]c(=O)n1C1CC1", "Potency": "inconclusive: 18.5 µM [inhibitor, single point]"}, {"smiles": "COc1ccc(C[C@H]2CN3C(=NC[C@H]3Cc3ccccc3)N2CCNC(=O)CCC2CCCCC2)cc1", "Potency": "active: 4.65 µM"}, {"smiles": "FC(F)(F)c1cnc(NNC(=S)Nc2ccc(Cl)cc2)c(Cl)c1", "Potency": "active: 7.38 µM"}, {"smiles": "COc1ccc(C(OCC(O)CNCCc2ccccc2)c2ccc(OC)cc2)cc1", "note": "(stereo not drawn)", "Potency": "active: 4.15 µM"}, {"smiles": "COCCn1c(SCC(=O)NCc2ccccc2)nc2ccccc21", "activity change, negative = inhibition": "inactive: -19.9%"}, {"smiles": "Cc1ccc2cc(C(c3nnnn3CC3CCCO3)N3CCc4ccccc4C3)c(=O)[nH]c2c1", "note": "(stereo not drawn)", "activity change, negative = inhibition": "inactive: 151%"}, {"smiles": "COc1cc(OC)c(C2C(C#N)=C(N)OC3=C2C(=O)CC(C)C3)cc1OC", "note": "(stereo not drawn)", "Potency": "inconclusive: 18.5 µM [inhibitor, single point]"}, {"smiles": "O=C(CCN1CCOCC1)N1CCCC(Nc2cccc(F)c2)C1", "note": "(stereo not drawn)", "Potency": "inconclusive: 11.7 µM [inhibitor, single point]"}, {"smiles": "COc1cc(CC(=O)N/N=C/c2ccc([N+](=O)[O-])cc2)c([N+](=O)[O-])cc1OC", "Potency": "inconclusive: 13.1 µM [inhibitor, single point]"}, {"smiles": "Cc1ccc(SC(C)C(=O)N2CCC(C(N)=O)CC2)cc1", "note": "(stereo not drawn)", "Potency": "inconclusive: 2.08 µM [inhibitor, partial curve, poor fit]"}, {"smiles": "COc1ccc(OCCN(C)C(=O)c2cccc(S(=O)(=O)N(C)c3ccccc3)c2)cc1", "Potency": "inconclusive: 10.4 µM [inhibitor, single point]"}, {"smiles": "Cc1ccc(Nc2nc(OC(C(F)(F)F)C(F)(F)F)nc(N3CCOCC3)n2)cc1", "Potency": "inconclusive: 13.1 µM [inhibitor, partial curve, poor fit]"}, {"smiles": "CCOC(=O)c1ccc(NC(=O)CSc2ccc(-c3ccncc3)nn2)cc1", "Potency": "inconclusive: 9.28 µM [inhibitor, partial curve, poor fit]"}, {"smiles": "CCn1c(O)c(/C(C)=N/N2CCCCC2c2cccnc2)c(=O)[nH]c1=S", "note": "(stereo not drawn)", "Potency": "active: 13.1 µM"}, {"smiles": "CCOc1cc(S(=O)(=O)NCCCn2ccnc2)ccc1Cl", "activity change, negative = inhibition": "inactive: 6.86%"}, {"smiles": "COP(=O)(OC)OC=C(Cl)Cl", "Potency": "inconclusive: 10.7 µM [inhibitor, partial curve]"}, {"smiles": "COc1ccc(-c2cc(C)no2)cc1S(=O)(=O)N1CCCCC1", "Potency": "inconclusive: 18.5 µM [inhibitor, single point]"}, {"smiles": "CC(=O)COc1nc2c(c(-c3ccco3)c1C#N)CCc1ccccc1-2", "Potency": "active: 11.7 µM"}, {"smiles": "COC(=O)c1ccc(C(=O)N2CCCC(Nc3ccc(C(C)C)cc3)C2)nc1", "note": "(stereo not drawn)", "Potency": "inconclusive: 4.15 µM [inhibitor, partial curve, poor fit]"}, {"smiles": "CN1CCN(c2ccc(F)cc2N)CC1", "Potency": "inconclusive: 18.5 µM [inhibitor, single point]"}, {"smiles": "O=C(CSc1nc2ccccc2c(=O)n1-c1ccccc1)N1CCN(CCO)CC1", "Potency": "inconclusive: 16.5 µM [inhibitor, partial curve, poor fit]"}, {"smiles": "COc1ccc(S(=O)(=O)c2cnc3ccc(OC)cc3c2N2CCC3(CC2)OCCO3)cc1", "Potency": "active: 8.28 µM"}, {"smiles": "COc1ccc(C(=O)O)cc1S(=O)(=O)NC(C)C", "activity change, negative = inhibition": "inactive: 57.3%"}, {"smiles": "CCOC(=O)C1=C(N)Oc2cc(C)oc(=O)c2C1c1cccnc1", "note": "(stereo not drawn)", "Potency": "inconclusive: 0.0522 µM [inhibitor, full curve, poor fit]"}, {"smiles": "O=C1C(Cc2ccc(F)cc2)SC(=Nc2ccccc2)N1c1ccccc1", "note": "(stereo not drawn)", "Potency": "inconclusive: 4.15 µM [inhibitor, partial curve, poor fit]"}, {"smiles": "COc1ccccc1C(C)NC(=O)c1ccc(C)o1", "note": "(stereo not drawn)", "Potency": "active: 13.1 µM"}, {"smiles": "CCOC(=O)c1c2ccc(OCC(=O)N/N=C/c3ccccc3C(F)(F)F)cc2n2ccccc12", "Potency": "inconclusive: 18.5 µM [inhibitor, single point]"}]}]}
